# For at least one compound, name, drawing or mass did not settle the structure.
# Test: Methyl mercaptan suppression by Group A and Group B materials alone and combined (synergistic or additive activity)
# Settings: Group A level 200 ppm, in ethanol, room temperature 2 hours
# Procedure: The synergistic or additive activity of methyl mercaptan inhibition of malodor eliminating materials was tested. 5-40 μl of 1% (w/v) test OE materials in ethanol was placed into a 2 ml GC vial. Ethanol was added into this vial up to 1000 μl. 2 μl of 0.5%(w/v) of sodium methoxide in deionized water was added into the resulting vial, left to sit at room temperature for 2 hours, and analyzed using Multipurpose sampler-GC-PFPD. As a control, ethanol was added instead of test OE materials. Malodor suppression was calculated as described in Example 1 above.
smiles,measurement,value
"COc1ccc(C=O)cc1 [ANIS ALD, anisaldehyde]",methyl mercaptan suppression (%) A alone,5%

# Reference: patent US9351944B1, “Malodor eliminating compositions” (TAKASAGO INTERNATIONAL CORPORATION, priority 2008, dated 2016)
